± gives the standard deviation. This is a selection; strong and weak results do not stand in their true shares. Many of these values have a large error.
The sequences below were run on MILI (PIWIL2) piRISC loaded with L1MC piRNA (26 nt) (assay: pre-steady-state target cleavage rate (min^-1); MIWI and MILI are mouse PIWI proteins and EfPiwi is from a freshwater sponge; tags in brackets are library labels; higher = faster piRNA-guided slicing of the target). Settings: guide: L1MC piRNA 5'p-UAACUAAAUACUAUGCAAGCUGUAGG; auxiliary factor: 500 nM mouse GTSF1.
Experimental: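 Cleave-'n-Seq: a library of target RNAs (target site embedded in constant flanks, ACAGCATTCCGCGTTAGTGATATCCG... 5' flank; DNA-blocked outside the site) at 0.1 nM was incubated with 1 nM active mouse MILI or MIWI piRISC (synthetic 5'-monophosphorylated piRNA guide) with or without 500 nM mouse GTSF1 at 33 °C for 1 min to 16 h. Uncleaved targets were sequenced and normalised to non-target controls, and the pooled three trials were fitted to a burst-and-steady-state model to give the pre-steady-state cleavage rate (min^-1; k3 is constrained to at most 1e-4). Sequence is the target site only; target names encode pairing extent (gX:gY) and contiguous / 1-mismatch / 2-mismatch / bulge geometry. Fits with R² ≤ 0 are excluded.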

| Sequence | pre-steady-state target cleavage rate |
| --- | --- |
| UCCUGCUACAGGAUGCAUAGUAUUUAGUAA | 0.301 ± 0.044 |
| UCCUGGAUCAGCUUCCAUAGUAUUUAGUAA | 0.0353 ± 0.0094 |
| UCCUGGAUGUCGAUGCAAAGUAUUUUGUUA | 0.00139 ± 0.0088 |
| UCCUGGAUGUCGUUGCAUAGUUAAUAGUUA | 0.00244 ± 0.0053 |
| UCCUGGAUGUCGAACCAUAGAUUUAGUUA | 0.000143 ± 0.037 |
| UCCUGGUACAGCUUGCAUAGUACUUUAGUUA | 0.147 ± 0.024 |
| UCCUCCUACAGCUUGCUUAGUAUUUACAAA | 0.0922 ± 0.021 |
| UCCUGGAACAGCUAGCAUAGUAAUUAGUUA | 0.155 ± 0.018 |
| UCCUGGAUGUCGACGCAUAGUAUUUAGUUA | 0.0214 ± 0.0042 |
| UCCUGGAUCAGCUUGCAUAGUUAAUAGAAA | 0.00273 ± 0.0047 |
| UCCUGGAUGUGCUUGCUAUCAUAAAUCAAA [g15:g20:cont:t1A] | 0.000461 ± 0.019 |

Same assay, conditions: guide: L1MC piRNA 5'p-UAACUAAAUACUAUGCAAGCUGUAGG; auxiliary factor: none (no GTSF1)

| Sequence | pre-steady-state target cleavage rate |
| --- | --- |
| UCCUGGAUGUCGAACGUUAGUAGUUUAGUUA | 0.000181 ± 0.026 |
| UCCUGGAUGUCGAAGCAUAGUAUAAAGUUA | 0.00151 ± 0.004 |
| UCCUGGAACAGGAUGCAUAGUAUUUAGAAA | 0.000882 ± 0.0043 |
| UCCUGGAACAGCUUCGUUAGUAUUUAGUAA | 0.00152 ± 0.0041 |
| UCCUGGAUGAGCUUGCAUAGAUAUUAGAAA | 0.000574 ± 0.0094 |
| UCCUGGAUCAGCUUCCAUAGUAUUUAGUAA | 0.00139 ± 0.0049 |
| UCCUGGAUGUGCUUGUCAUAGUAUUUAGUUA | 0.00255 ± 0.0039 |
| UCCUGGAUGUCGAACGUAUCUAUUAUGUUA | 0.000278 ± 0.016 |
| UCCUGCUACACCUUGCAUACUAUUUAGUUA | 0.00195 ± 0.004 |
| UCCUGGUACAGCUACCAUAGUAUUUAGAAA | 0.00124 ± 0.0056 |
| UCCUGGAUGUCGAUGCAAAGUAUUUUGUUA | 0.000415 ± 0.013 |
| UCCUGGAUGUCGAUGCAUACAUUUUAGUUA | 0.000342 ± 0.017 |
| UCCUGGAUGUCGAACGUUACUAUUUAGUUA | 0.000195 ± 0.018 |
| UCCUGGAUGUCGUUGCAUAGUUAAUAGUUA | 0.00434 ± 0.0022 |
| UCCUGGUACAGCUUGCAUAGUACUUUAGUUA | 0.00705 ± 0.0032 |
| UCCUGGAACAGCUUCCAUAGUAUUAAGUUA | 0.000459 ± 0.014 |
| UCCUCCUACAGCUUGCUUAGUAUUUACAAA | 0.00136 ± 0.0034 |
| UCCUGGAACAGCUAGCAUAGUAAUUAGUUA | 0.00801 ± 0.0026 |
| UCCUGGAUGUCCUUGCAUAGUAUUUUCAAA | 0.00132 ± 0.0042 |
| UCCUGCUACAGCUUGCAUAGAAUUUAGUAA | 0.00137 ± 0.0052 |
| UCCUGCUACAGCUUGCAUAGUAAAUAGAAA | 0.000765 ± 0.0089 |
| UCCUGGAUCAGCUUGCAUACUAUUUUGUUA | 0.000785 ± 0.0089 |
| UCCUGGUACAGCUACCAUAGUAUUUACAAA | 0.000565 ± 0.01 |
| UCCUGGAUGUCGACGCAUAGUAUUUAGUUA | 0.00381 ± 0.0021 |
| UCCUGGAUGUCGAUGUCAUAGUAUUUAGUUA | 0.000835 ± 0.0067 |
| UCCUCCAUGAGCUUGCAUAGUAUUUUCAAA | 0.000652 ± 0.0071 |
| UCCUGGAUCAGCUUGCAUAGUUAAUAGAAA | 0.00105 ± 0.0059 |
| UCCUGGAUGUGCUUGCUAUCAUAAAUCAAA [g15:g20:cont:t1A] | 0.000352 ± 0.014 |
| UCCUGGAUGUCGAACGUUAGUUAUUAGUUA | 0.000104 ± 0.036 |

Source: the supplement of paper PMC10338343
